Laboratory results reported in patent publication US7728105B2, “Peptides impairing PBX dependent gene regulation” (St. George's Hospital Medical School, priority 2002, dated 2010).

Experiments:
[1] = test system: CD133+ cells; test: CD133+ cell proliferation in cytokine supplemented liquid culture over 18 days; type: cell-based, human
Protocol: CD133+ cells (another name for AC133+ cells) were seeded in duplicate at 4×10^4 cells/ml in IMDM (Life Technologies), 10% FCS (Sigma Aldrich) and gentamycin (50 μg/ml Life Technologies) and Thrombopoietin (TPO) 10 ng/ml, Flt3-Ligand (FL) 50 ng/ml & c-KitL (K) 20 ng/ml), all obtained from R and D systems Ltd., UK. (Forraz et al., 2002). The HXP peptide (N-term: WYPWMKKHHRQIKIWFQNRRMKWKK: C-term; Eurogentec, Belgium) and control CXP peptide (N-term: WCCLADRHGRQIKIWFQNRRMKWKK: C-term; Eurogentec, Belgium) were added to culture medium at a concentration of 20 μg/ml. To withdraw peptides from culture, cells were washed twice in IMDM or RPMI and reseeded at prewash cell densities. Primary cells were cultured for 3 weeks at 37° C., 5% CO2 in humidified atmosphere and enumerated by a […] exclusion method with a heamocytometer.

[2] = test system: KG1a, HL60 and U937 leukaemic cell lines; test: Growth of leukaemic cell lines over 48 hours (Example 3); type: cell-based, human
Protocol: KG1a, HL60 and U937 cell lines were seeded as described in Example 1.
All cell lines were grown with HXP peptide (20 μg/ml) or CXP (20 μg/ml). Cell lines were cultured for various time points at 37° C., 5% CO2 in humidified atmosphere and enumerated at various time points.

| Substance | cellular morphology and integrity [1] | cellular morphology and integrity [2] |
| --- | --- | --- |
| WYPWMKKHHRQIKIWFQNRRMKWKK [HXP peptide] | no apparent change | no apparent change |
| WCCLADRHGRQIKIWFQNRRMKWKK (WCCLADRHGRQIKIWFQNRRMKWKK) [CXP, reference compound] | no apparent change | no apparent change |
